The values below come from publication PMC2571102.

For at least one entry, the source does not settle the construct or the ends of the probe. At least one result comes from cells or an extract, where the contact may be indirect.

In data set [1] the test system is FIZ1 (Flt3-interacting zinc finger 1), in retinal nuclear complex + NRL (neural retina leucine zipper). The experiment in a line: EMSA, antibody removal of band. The conditions noted are these: bovine retina nuclear extract, anti-bFIZ1 removed the higher complex, preimmune IgG did not, cold probe competed; 20 mM Tris-HCl pH 7.5, 100 mM NaCl, 2 mM MgCl2, 1 mM EDTA, 1 mM DTT, 1 ug poly-dI-dC, 8% glycerol, 21 C, 30 min; 20 fmol probe, 5 ug nuclear extract; protein in an extract; label: 5'-32P. (In EMSA bound probe runs differently from free probe, usually more slowly.)

Data set [2] relates to FIZ1 (Flt3-interacting zinc finger 1), in retinal nuclear complex + CRX (cone-rod homeobox). The experiment in a line: EMSA, antibody removal of band. The conditions noted are these: bovine retina nuclear extract, 20 mM Tris-HCl pH 7.5, 100 mM NaCl, 2 mM MgCl2, 1 mM EDTA, 1 mM DTT, 1 ug poly-dI-dC, 8% glycerol, 21 C, 30 min, 20 fmol probe, 5 ug nuclear extract, protein in an extract, label: 5'-32P.

“CAGATGCTGATTCAGCCAGGAGCT (double strand) [NRE (NRL-response element, Rhodopsin promoter)]”: the binding result in data set [1] is reported as “binds”.
Take “GCAGCAGTGAGGATTAATATGATTAATAACG (double strand) [BAT-1 (CRX-binding element, Rhodopsin promoter)]”: in data set [2] (anti-bFIZ1 abolished the third, highest band, two lower CRX bands unaffected), the binding result was “binds”.
For the sequence “GGGAGCTTAGGGAGGGGAGG (double strand) [Ret-4 (CRX-binding element, Rhodopsin promoter)]”, the binding result in data set [2] (anti-bFIZ1 removed the shifted band, preimmune IgG did not) is “binds”.
